Results are given in words; binding and its absence hold for the method and conditions named. Binding seen in cells or lysates may run through a third protein.

Our source for the binding values is doi:10.1101/710202.

The target of the assay is Par3-APEX2-EGFP. As to the kind of experiment: co-IP.

B1: ZO-2 (protein, UniProt Q95168 1-1174)
chain: MEELIWEQYTVTLQKDSKRGFGIAVSGGRDNPHFENGETSIVISDVLPGGPADGLLQENDRVVMVNGTPMEDVLHSFAVQQLRKSGKIAAIVVKRPRKVQLAPPQGSLPVDEDDRAFEVMDEFDGRSARSGYSERSRRSSHGGRSRSWEDSPERGRPHERAWSQERERSRGRSLERGLDHDDDYRRPRERSRGRSLERGLDHDDDYGRPGERSHGMSTDRGYDRGYDRGYDRGYDRTYSPEAEYGRRTQPDARHAGSRSRSREHLRSRSPSPELRGRPDHAGQPDSDRPIGVLLMKSKANEEYGLRLGSQIFIKQMTRTALATKDGNLHEGDIILKINGTVTENMSLTDARKLIEKSRGKLQLVVLRDSKQTLINIPSLNDSDSEIEDISEIESNRSFSPEERRQQYSDYDYHSSNEKLKERPNSREDMQNRWSRMGATPTPFKSMGDIASVVGTENSKEPRYQEEPPAPQPKAAPRTFLRPSPEDEAIYGPNTKMVRFKKGDSVGLRLAGGNDVGIFVAGIQEGTSAEQEGLQEGDQILKVNTQDFRGLVREDAVLYLLEIPKGEMVTILAQSRADVYRDILACGRGDSFFIRSHFECEKETPQSLAFSRGEVFRVVDTLYDGKLGHWLAVRIGNELEKGLIPNKSRAEQMASVQNAQRDNAGDRADFWRMRGQRSGMKKNLRKSREDLTAAVSVSTKFPAYERVLLREAGFKRPVVLFGPIADIALEKLANELPDLFQTAKTEPKDAGSEKSSGVVRLNTVRQIIEQDKHALLDVTPKAVDLLNYTQWFPIVIFFNPDSRQGVKTMRQRLNPTSNKSSRKLYDQANKLKKTCAHLFTATINLNSANDSWFGSLKDTIQHQQGEAVWVSEGKMEGMDDDPEDRMSYLTAMGADYLSCDSRLISDFEDTDGEGGAYTDNELDEPAEEPLVSSITRSSEPVQHEESIRKPSPEPRAQMRRAASRDQLRDSSPPPAFKPEPPKAKTQNREESFDISRSHDYKSNPSAVAGNEVSGASTRSCPPPIAAKPSFGRSILKPSTPVPSPESEEVGEGSEEQEGAPKSVLGKVKIFEKMDHKARLQRMQELQEAQNARIEIAQKHPDIYAVPIKTHKPDPGLSQHTSSRPPEPQKGPSRLYQDPRGSYGSDAEEEEYRQQLSEHSKRGYYSQPSRYRDTEL
As to B1, the binding entry was “no binding”.

B2: Occludin (protein, UniProt Q28269 1-521)
chain: MSSRPFESPPPYRPDEFKPNHYAPSNDVYGGDMHVRPMLSQPAYSFYPEDEILHFYKWTSPPGVIRILSMLVIVMCIAIFGCVASTLAWDRGYGTGLMGGSIGYPYGSGFGSYGTGYGYGFGYGYGYGGYTDPRAAKGFLLAMVAFCFIAALVIFVTSVIRSDISRTRRYYLTVIILSAFLGVMMFIATIVYIMGVNPTAQASGSLYSSQIYAMCNQFYASTATGLYMDQYLYHYCVVDPQEAIAIVLGFMVIVAFALIIFFAVKTRRKMDRYDKSNILWDKEHIYDEQPPNVEEWVKNVSAGTQDMPPPPSDYVERVDSPMAYSSNGKVNDKRLYPESSYKSTPVPEVVQELPATSPADDFRQPRYSSSGHLEPPSKRAPSKGRTGRPKRLEQDHYETDYTTGGESCDELEEDWIREYPPITSDQQRQLYKRNFDTGLQEYKSLQAELDEINKELSRLDKELDDYREESEEYMAAADEYNRLKQVKGSPDYKNKRNYCKQLKSKLSHIKKMVGDYDRQKT
Take B2: the binding result is “no binding”.
